Results deposited as PubChem BioAssay AID743121 (NCATS, 2013).
Test: 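Knock-downs that sensitise breast cancer cells to camptothecin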 (primary screen). System: MDA-MB-231 cells, a human breast cancer line. Reagent: single siRNA against human genes, 20 nM siRNA (0.8 pmol per well). Duration: 120 h (drug added 48 h after transfection, read 72 h later). Conditions: camptothecin 20 nM (about EC30) for 72 h; vehicle 0.1% DMSO in parallel plates. Measurement: 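Cell viability by ATP luminescence (CellTiter-Glo) as % of non-targeting siRNA wells, and the log2 ratio of viability without drug over viability with camptothecin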. Scale: log2 vehicle/camptothecin viability: higher = stronger sensitisation to camptothecin; viability with camptothecin: higher = more viable cells. Call rule: 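Active genes have an RSA gene-level p-value below 0.001, computed from the ratios of their separate siRNAs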.
The whole screen tested about 26,000 reagents; shown is a random part of them. 167 of them (0.63%) were called active. 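Calls are per gene from RSA p-values that are not deposited; an individual active-marked siRNA can sensitise only weakly.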 Unmarked entries are inactive. Reagents against one gene are numbered here. Not all columns of the deposit are shown. No sequences are given here.

| target | reagent no. | log2 vehicle/camptothecin viability | viability with camptothecin (% of control) |
| --- | --- | --- | --- |
| MMP14 (GeneID 4323) | 1 | 0.142 | 97.3 |
| MMP14 (GeneID 4323) | 2 | -0.168 | 92.6 |
| MMP14 (GeneID 4323) | 3 | 0.00561 | 96.4 |
| MMP14 (GeneID 4323) | 4 | 0.05 | 65.4 |
| NPFFR1 (GeneID 64106) | 1 | -0.28 | 64.5 |
| NPFFR1 (GeneID 64106) | 2 | 0.131 | 81.4 |
| NPFFR1 (GeneID 64106) | 3 | -0.0887 | 17.8 |
| NPFFR1 (GeneID 64106) | 4 | -0.0431 | 66.7 |
| RAB33A (GeneID 9363) | 1 | -0.196 | 125 |
| RAB33A (GeneID 9363) | 2 | -0.187 | 73.2 |
| RAB33A (GeneID 9363) | 3 | -0.286 | 82.3 |
| MAP3K20 (GeneID 51776) | 1 | -0.314 | 130 |
| MAP3K20 (GeneID 51776) | 2 | -0.0645 | 66.8 |
| MAP3K20 (GeneID 51776) | 3 | 0.472 | 87.4 |
| MAP3K20 (GeneID 51776) | 4 | -0.228 | 101 |
| CD5L (GeneID 922) | 1 | 0.387 | 19.5 |
| CD5L (GeneID 922) | 2 | 0.497 | 28.1 |
| CD5L (GeneID 922) | 3 | -0.392 | 94.9 |
| CD5L (GeneID 922) | 4 | -0.498 | 86.3 |
| KHSRP (GeneID 8570) | 1 | -0.512 | 42.9 |
| KHSRP (GeneID 8570) | 2 | -0.459 | 101 |
| KHSRP (GeneID 8570) | 3 | -0.178 | 65.7 |
| KHSRP (GeneID 8570) | 4 | 0.0304 | 11.7 |
| ANAPC4 (GeneID 29945) | 1 | -0.986 | 14.7 |
| ANAPC4 (GeneID 29945) | 2 | -0.329 | 88.6 |
| ANAPC4 (GeneID 29945) | 3 | -0.103 | 101 |
| TNFRSF9 (GeneID 3604) | 1 | -0.282 | 70.7 |
| TNFRSF9 (GeneID 3604) | 2 | -0.239 | 75.2 |
| TNFRSF9 (GeneID 3604) | 3 | -0.362 | 78.6 |
| TNFRSF9 (GeneID 3604) | 4 | 0.0877 | 46.4 |
| OR5I1 (GeneID 10798) | 1 | -0.345 | 78.6 |
| OR5I1 (GeneID 10798) | 2 | 0.0857 | 103 |
| OR5I1 (GeneID 10798) | 3 | -0.264 | 97.8 |
| OR5I1 (GeneID 10798) | 4 | -0.146 | 102 |
| SACS (GeneID 26278) | 1 | -0.423 | 121 |
| SACS (GeneID 26278) | 2 | -0.124 | 88.3 |
| SACS (GeneID 26278) | 3 | -0.0393 | 89.4 |
| SACS (GeneID 26278) | 4 | -0.195 | 98.7 |
| MAP3K9 (GeneID 4293) | 1 | -0.126 | 88.7 |
| MAP3K9 (GeneID 4293) | 2 | -0.0452 | 106 |
| MAP3K9 (GeneID 4293) | 3 | -0.423 | 73.8 |
| MAP3K9 (GeneID 4293) | 4 | -0.465 | 132 |
| RNF181 (GeneID 51255) | 1 | -0.139 | 110 |
| RNF181 (GeneID 51255) | 2 | -0.15 | 101 |
| RNF181 (GeneID 51255) | 3 | -0.214 | 123 |
| RNF181 (GeneID 51255) | 4 | -0.168 | 66.6 |
| MRGPRX1 (GeneID 259249) | 1 | -0.423 | 78.5 |
| MRGPRX1 (GeneID 259249) | 2 | 0.286 | 82.5 |
| MRGPRX1 (GeneID 259249) | 3 | -0.202 | 68.6 |
| MRGPRX1 (GeneID 259249) | 4 | -0.149 | 67.8 |
| CDCP2 (GeneID 200008) | 1 | 0.166 | 67.1 |
| CDCP2 (GeneID 200008) | 2 | 0.198 | 68.7 |
| CDCP2 (GeneID 200008) | 3 | -0.0723 | 101 |
| DDX1 (GeneID 1653) | 1 | -0.393 | 90.2 |
| DDX1 (GeneID 1653) | 2 | -0.263 | 92.6 |
| DDX1 (GeneID 1653) | 3 | -0.521 | 60.7 |
| DDX1 (GeneID 1653) | 4 | -0.0225 | 45.4 |
| HCG22 (GeneID 285834) | 1 | -0.246 | 136 |
| HCG22 (GeneID 285834) | 2 | 0.0117 | 94.6 |
| HCG22 (GeneID 285834) | 3 | -0.173 | 97.1 |
| HCG22 (GeneID 285834) | 4 | -0.292 | 99.6 |
| CD69 (GeneID 969) | 1 | 0.316 | 47 |
| CD69 (GeneID 969) | 2 | -0.187 | 86.9 |
| CD69 (GeneID 969) | 3 | -0.183 | 91.1 |
| CD69 (GeneID 969) | 4 | -0.21 | 79.9 |
| ADARB1 (GeneID 104) | 1 | -0.0363 | 108 |
| ADARB1 (GeneID 104) | 2 | -0.41 | 84.8 |
| ADARB1 (GeneID 104) | 3 | -0.25 | 95.8 |
| ADARB1 (GeneID 104) | 4 | -0.0764 | 69.8 |

A portion from the list above, for reference:
| target | reagent no. | log2 vehicle/camptothecin viability | viability with camptothecin (% of control) |
| --- | --- | --- | --- |
| MRGPRX1 (GeneID 259249) | 3 | -0.202 | 68.6 |
| MRGPRX1 (GeneID 259249) | 4 | -0.149 | 67.8 |
| CDCP2 (GeneID 200008) | 1 | 0.166 | 67.1 |
| CDCP2 (GeneID 200008) | 2 | 0.198 | 68.7 |
| CDCP2 (GeneID 200008) | 3 | -0.0723 | 101 |
| DDX1 (GeneID 1653) | 1 | -0.393 | 90.2 |
